Measurements reported in PubChem BioAssay AID1259285 (Sanger Institute, 2017).
Purpose: 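Kinases needed for HCC56 growth and kinases whose loss boosts drug effects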 (primary screen). Cells: human HCC56 colorectal cancer cells. Reagent: siRNA pool against human genes. Treatment: DMSO vehicle, or anchor drug BYL719 at 1 µM, cetuximab at 5 µg/ml, or trametinib at 10 nM. Measured: 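Viability as a ratio to non-targeting pool wells, averaged over replicates and turned into a robust z-score; synergy scores with BYL719, cetuximab or trametinib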. Direction: viability robust z-score, no drug: higher = more viable cells, weaker knock-down effect; viability vs non-targeting pool, no drug: higher = more viable cells. Hit rule: 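a knock-down counts as essential if its viability z-score without drug is under -3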. Meaning of the calls: active = essential without drug; inactive = no change without drug.
This is one part, drawn at random, of 794 reagents tested. 20 of all reagents (2.5%) count as active. 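Calls rest on the drug-free arm alone and ignore synergy scores; viability ratios seem to be capped at 1.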 A number with no mark means an inactive call. Further read-outs or replicates are left out here. No sequences are given here. The record does not give: the amount of reagent, the time to read-out.

After knock-down of RIOK1 (RIO kinase 1), the screen gave viability robust z-score, no drug 0.458; viability vs non-targeting pool, no drug 1. Against NEK9 (NIMA related kinase 9), the values are viability robust z-score, no drug 0.458; viability vs non-targeting pool, no drug 1. For DYRK4 (dual specificity tyrosine phosphorylation regulated kinase 4), the entry reads viability robust z-score, no drug 0.458; viability vs non-targeting pool, no drug 1. Knock-down of PANK3 (pantothenate kinase 3) resulted in: viability robust z-score, no drug 0.458; viability vs non-targeting pool, no drug 1. For ERBB3 (erb-b2 receptor tyrosine kinase 3), the values are viability robust z-score, no drug 0.456; viability vs non-targeting pool, no drug 1. Silencing of CSNK1A1 (casein kinase 1 alpha 1) gave: viability robust z-score, no drug 0.458; viability vs non-targeting pool, no drug 1.

Knock-down of TRIB3 (tribbles pseudokinase 3) gave: viability robust z-score, no drug 0.458; viability vs non-targeting pool, no drug 1. GUK1 (guanylate kinase 1) showed viability robust z-score, no drug 0.458; viability vs non-targeting pool, no drug 1. Against CDKL3 (cyclin dependent kinase like 3) the deposit lists viability robust z-score, no drug 0.458; viability vs non-targeting pool, no drug 1. Against PRKAG1 (protein kinase AMP-activated non-catalytic subunit gamma 1) the deposit lists viability robust z-score, no drug 0.458; viability vs non-targeting pool, no drug 1. Against CDK2 (cyclin dependent kinase 2), the entry reads viability robust z-score, no drug 0.458; viability vs non-targeting pool, no drug 1. After knock-down of LTK (leukocyte receptor tyrosine kinase), the record shows viability robust z-score, no drug 0.458; viability vs non-targeting pool, no drug 1.

Silencing of GNE resulted in: viability robust z-score, no drug 0.458; viability vs non-targeting pool, no drug 1. With knock-down of RAF1 (Raf-1 proto-oncogene, serine/threonine kinase) the results were viability robust z-score, no drug -1.76; viability vs non-targeting pool, no drug 0.81. Against SPEG (striated muscle enriched protein kinase) the deposit lists viability robust z-score, no drug 0.458; viability vs non-targeting pool, no drug 1. With knock-down of TAOK1 (TAO kinase 1), the record shows viability robust z-score, no drug 0.458; viability vs non-targeting pool, no drug 1. ZAP70 (zeta chain of T cell receptor associated protein kinase 70) scored viability robust z-score, no drug -0.0461; viability vs non-targeting pool, no drug 0.957. CSNK1D (casein kinase 1 delta) gave viability robust z-score, no drug 0.458; viability vs non-targeting pool, no drug 1.

Silencing of PAK1 (p21 (RAC1) activated kinase 1) resulted in: viability robust z-score, no drug -0.0292; viability vs non-targeting pool, no drug 0.958. NME7 (NME/NM23 family member 7) showed viability robust z-score, no drug 0.458; viability vs non-targeting pool, no drug 1. After knock-down of PRKG1 (protein kinase cGMP-dependent 1), the screen gave viability robust z-score, no drug 0.458; viability vs non-targeting pool, no drug 1. CDC7 (cell division cycle 7) scored viability robust z-score, no drug -0.848; viability vs non-targeting pool, no drug 0.888. Silencing of ULK4 (unc-51 like kinase 4) resulted in: viability robust z-score, no drug -0.221; viability vs non-targeting pool, no drug 0.942. Depletion of ETNK1 (ethanolamine kinase 1) came out at: viability robust z-score, no drug 0.458; viability vs non-targeting pool, no drug 1.

After knock-down of PTPN11 (protein tyrosine phosphatase non-receptor type 11), the screen gave viability robust z-score, no drug 0.458; viability vs non-targeting pool, no drug 1. PAK4 (p21 (RAC1) activated kinase 4) scored viability robust z-score, no drug 0.458; viability vs non-targeting pool, no drug 1. With knock-down of FER (FER tyrosine kinase) the results were viability robust z-score, no drug 0.458; viability vs non-targeting pool, no drug 1. Against EIF2AK4 (eukaryotic translation initiation factor 2 alpha kinase 4), the entry reads viability robust z-score, no drug 0.458; viability vs non-targeting pool, no drug 1.

Targets above whose target name begins with R or r:
RIOK1 (RIO kinase 1): viability robust z-score, no drug = 0.458; viability vs non-targeting pool, no drug = 1
RAF1 (Raf-1 proto-oncogene, serine/threonine kinase): viability robust z-score, no drug = -1.76; viability vs non-targeting pool, no drug = 0.81
